Laboratory results as given in patent publication US20250066463A1.
These are yes or no findings as the source states them, for the method shown. Some binding calls cover weakened binding; strength is not graded here.

Key:
[1] = molecular target: T1, Biotin-Avi-ANGPTL8 (human) (UniProt Q6UXH0); experiment: TR-FRET, Europium-streptavidin on Biotin-Avi-ANGPTL8 and Alexa Fluor 647 labeled antibody at 25 nM
T1 sequence (chain, biotin on the N-terminal Avi tag (BirA), bound by Europium-streptavidin donor): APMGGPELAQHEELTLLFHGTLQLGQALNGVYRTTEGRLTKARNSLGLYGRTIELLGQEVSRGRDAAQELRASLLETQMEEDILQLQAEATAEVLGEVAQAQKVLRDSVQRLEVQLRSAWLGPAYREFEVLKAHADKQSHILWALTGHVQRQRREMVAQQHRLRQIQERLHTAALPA

[2] = molecular target: T1, Biotin-Avi-ANGPTL8 (human); experiment: TR-FRET between Europium-streptavidin on N-terminally biotinylated Avi-ANGPTL8 (co-expressed with ANGPTL3) and Alexa Fluor 647 labeled antibody at 25 nM

binding [1]: binds
binding [2]: binds
B1: H4H15341P (antibody, V domains shown)
VH: EVQLVESGGGLVQPGGSLRLSCAASGFTFNNHEMNWVRQAPGKGLEWVSYISSSGNTVTYADFLKGRFTISRDNAKNSLFLQMNSLRDEDTAVYYCARDHLSGTSPLSYWGQGTLVTVSS
VL: DIQMTQSPSSLSASVGDRVTITCQASQDINNYLNWFQQKPGKAPKLLIFDASNLETGVPSRFSGSGSGTDFTFTISSLQPEDIATYFCQQYENLPYTFGQGTKLEIK
